The test system of this data set is TBP + TFIIB complex. The data set can be described thus: EMSA. Particulars: stable complex only with both TBP and TFIIB; 30 C, 4 mM MgCl2, 55 mM KCl, poly(dG.dC); exact probe span not stated; purified recombinant protein; protein details: gift from Stefan Roberts, University of Manchester; label: 32P.

Construct, isoform or probe ends are uncertain for at least one entry.

One sequence from patent US20030186424A1, “Reagents and methods for identifying and modulating expression of genes regulated by CDK inhibitors” (priority 2001, published 2003) can be followed below.

For “TTCCTGAAGGGGGGCTATAAAAGGGGGTGGGGGCGCGTTCGTCCTCACTCTCTTCCGCATGAA (double strand) [AdML TATA box core promoter probe]”, the binding result is on record as “binds”.
